Data as given in PubChem BioAssay AID602196 (INSERM, 2012).
Test: 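Modifiers of cisplatin sensitivity in A549 cells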. Cells: human A549 lung cancer cells. Knock-down reagent: siRNA pair against human genes. Duration: 48 h transfection before cisplatin; time from cisplatin to read-out not stated. Treatment: cisplatin at a dose killing half of control-siRNA cells; exact dose and duration not given. Measured: 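Cisplatin cell death as a shift from the 50% death seen with control siRNA; siRNAs toxic or growth-blocking alone scored 0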. Reading the numbers: two-siRNA summed score (-2 to +2): higher = both siRNAs protect from cisplatin killing; -2 means both sensitise. Rule for the call: 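siRNAs harmful alone (LDH or WST-1) get 0; others get +1 for less and -1 for more cisplatin killing; genes are active when the two siRNAs give the same sign, summing to ±2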. Calls: active = both siRNAs shift cisplatin killing the same way; inactive = no consistent shift, or siRNA harmful alone.
The deposit covers about 23,000 reagents; this is an unselected part. 455 of them (2%) were called active. 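Active includes both protection and sensitisation; some change values fall well beyond the stated -50 to +50 range.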 A number with no mark means an inactive call. Not all columns of the deposit are shown. The record does not give: the amount of reagent.

ZNF747 (zinc finger protein 747) → two-siRNA summed score (-2 to +2): 0
HOXD10 (homeobox D10) → two-siRNA summed score (-2 to +2): 0
DFFB (DNA fragmentation factor subunit beta) → two-siRNA summed score (-2 to +2): 1
STUB1 (STIP1 homology and U-box containing protein 1) → two-siRNA summed score (-2 to +2): 1
CEACAM8 (CEA cell adhesion molecule 8) → two-siRNA summed score (-2 to +2): 0
DAPK3 (death associated protein kinase 3) → two-siRNA summed score (-2 to +2): 0
LOC391248 → two-siRNA summed score (-2 to +2): 0
SLC6A12 → two-siRNA summed score (-2 to +2): 0
CLK4 (CDC like kinase 4) → two-siRNA summed score (-2 to +2): 1
LOC400669 → two-siRNA summed score (-2 to +2): 1
AMY2A (amylase alpha 2A) → two-siRNA summed score (-2 to +2): 1
ERBB4 (erb-b2 receptor tyrosine kinase 4) → two-siRNA summed score (-2 to +2): 1
DDX5 (DEAD-box helicase 5) → two-siRNA summed score (-2 to +2): 1
KRTAP10-8 (keratin associated protein 10-8) → two-siRNA summed score (-2 to +2): 0
SLC9A4 → two-siRNA summed score (-2 to +2): 2 (active)
ADARB1 (adenosine deaminase RNA specific B1) → two-siRNA summed score (-2 to +2): -1
ANAPC1P6 (ANAPC1 pseudogene 6) → two-siRNA summed score (-2 to +2): 2 (active)
PRR13P5 (proline rich 13 pseudogene 5) → two-siRNA summed score (-2 to +2): 1
LOC285176 → two-siRNA summed score (-2 to +2): 0
FAXC → two-siRNA summed score (-2 to +2): 0
SRP68 (signal recognition particle 68) → two-siRNA summed score (-2 to +2): 0
DYNC1I1 (dynein cytoplasmic 1 intermediate chain 1) → two-siRNA summed score (-2 to +2): 0
CAP2 (cyclase associated actin cytoskeleton regulatory protein 2) → two-siRNA summed score (-2 to +2): 1
LOC401449 → two-siRNA summed score (-2 to +2): 0
NTNG2 (netrin G2) → two-siRNA summed score (-2 to +2): 0
LOC402504 → two-siRNA summed score (-2 to +2): 0
MYCBP2 (MYC binding protein 2) → two-siRNA summed score (-2 to +2): -1
FASTKD3 (FASTK mitochondrial RNA regulator 3) → two-siRNA summed score (-2 to +2): 0
PTGIR (prostaglandin I2 receptor) → two-siRNA summed score (-2 to +2): 1
IDI2 (isopentenyl-diphosphate delta isomerase 2) → two-siRNA summed score (-2 to +2): 1
SPRY3 (sprouty RTK signaling antagonist 3) → two-siRNA summed score (-2 to +2): 0

Entries listed so far whose target name begins with P or p:
PRR13P5 (proline rich 13 pseudogene 5) → two-siRNA summed score (-2 to +2): 1
PTGIR (prostaglandin I2 receptor) → two-siRNA summed score (-2 to +2): 1
